The assay has as its target T1, VN-Atg17 (yeast) (UniProt Q06410).
T1 sequence: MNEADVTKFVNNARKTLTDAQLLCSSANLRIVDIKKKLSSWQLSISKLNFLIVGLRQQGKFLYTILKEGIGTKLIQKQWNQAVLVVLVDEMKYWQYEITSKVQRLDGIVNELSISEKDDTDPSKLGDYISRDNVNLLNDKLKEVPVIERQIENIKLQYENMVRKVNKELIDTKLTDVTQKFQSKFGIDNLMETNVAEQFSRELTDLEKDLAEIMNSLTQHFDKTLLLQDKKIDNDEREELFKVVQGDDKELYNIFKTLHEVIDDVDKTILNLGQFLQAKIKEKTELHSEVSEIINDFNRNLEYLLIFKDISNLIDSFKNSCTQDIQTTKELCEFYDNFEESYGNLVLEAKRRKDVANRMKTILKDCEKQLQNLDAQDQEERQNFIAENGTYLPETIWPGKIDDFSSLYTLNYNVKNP
Briefly: split reporter; BiFC with the two halves of Venus: pVC-SNF7 and pVN-ATGX cotransformed in yeast cells, expression induced in SD-Ura-His-Met for 1.5 h, starved in SD-N for 30 min, YFP dots seen by live-cell fluorescence microscopy; Atg17-Snf7 also tested in vps9Δ, vps21Δ, vps8Δ, pep12Δ, ypt7Δ and vps39Δ cells (dependent on the Rab5 module, not on Ypt7 or Vps39).

Results are given in words; binding and its absence hold for the method and conditions named. Binding seen in cells or lysates may run through a third protein. A result given as binding can be weak or reduced; the word gives no strength.

On to “membrane-binding domain of Snf7 (BiFC construct) (yeast) (domain or fragment)”, for which the binding entry is “binds”.
